For 4 sequences, Kd results are on record in paper PMC3622178.

Sequences of proteins named here, by UniProt entry; tags and fusion partners are left off. A change or cut given only in a name is not applied to a line headed by its entry.
UniProt Q61069: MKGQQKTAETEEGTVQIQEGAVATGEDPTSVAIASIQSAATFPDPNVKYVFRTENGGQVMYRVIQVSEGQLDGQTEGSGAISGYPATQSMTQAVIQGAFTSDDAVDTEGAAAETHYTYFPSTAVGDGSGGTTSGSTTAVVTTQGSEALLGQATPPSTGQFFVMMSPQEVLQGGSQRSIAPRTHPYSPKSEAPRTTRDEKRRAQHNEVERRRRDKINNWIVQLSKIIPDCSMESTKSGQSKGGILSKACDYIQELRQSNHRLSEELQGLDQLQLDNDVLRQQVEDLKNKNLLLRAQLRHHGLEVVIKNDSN

For at least one entry, the source does not settle the construct or the ends of the probe. Where cells or extracts were used, other partners may take part.

The test system of one data set is CLOCK + BMAL1. The data set can be described thus: EMSA saturation. Particulars: WT liver extract, CB2 tandem complex, 25 mM HEPES-KOH pH 7.6, 150 mM NaCl, 0.1 mM EDTA, 1 mM DTT, 200 ng/ul salmon sperm DNA, 50 ng/ul poly(dI-dC), 15 ug liver nuclear protein in 12 ul, 16 C 30 min, protein in an extract, label: 32P (5' kinase).
Data set [1] deals with USF1 (Mus musculus (C57BL/6J liver)) (UniProt Q61069). As to the kind of experiment: EMSA saturation. Particulars: 25 mM HEPES-KOH pH 7.6, 150 mM NaCl, 0.1 mM EDTA, 1 mM DTT, 200 ng/ul salmon sperm DNA, 50 ng/ul poly(dI-dC), 15 ug liver nuclear protein in 12 ul, 16 C 30 min, protein in an extract, label: 32P (5' kinase).
[2] abbreviates: ClockΔ19/ClockΔ19 liver extract.

Consider “CTAGCGACTCACGTGGCGAGGGAATGTGCAGC / TCGAGCTGCACATTCCCTCGCCACGTGAGTCG [Dbp EI2-box]”, for which the values for the dissociation constant (Kd) (with CLOCK + BMAL1 (text gives 0.86 nM); in data set [1] (setting [2]); in data set [1] (WT liver extract)) were 0.00071 µM, 0.00964 µM and 0.0061 µM, respectively.

For the sequence “CAAGTTGCCGCGTGAGCCAGCCTGCACGTGTTCCCTAC (double strand) [Per1 EP1-box]”, the Kd (usually the free concentration of one partner at which half of the binding sites on the other are occupied at equilibrium, for simple one-to-one binding) amounted to 0.0166 µM in the data set on CLOCK + BMAL1 (text gives 19 nM), 0.0586 µM in data set [1] (setting [2]) and 0.0334 µM in data set [1] (WT liver extract).

On to “CTAGCATAGCACGCGCAAAGCCATGTGCTTC / TCGAGAAGCACATGGCTTTGCGCGTGCTATG [Dbp EP-box]”, for which the Kd in the data set on CLOCK + BMAL1 worked out at 0.00201 µM; in data set [1] (setting [2]), 0.0496 µM; in data set [1] (WT liver extract), 0.0428 µM.

Turning to “CGCGGTCACGTTTTCCACTATGTGACAGCG (double strand) [Per2 E'-box]”, the Kd came out at 0.002 µM in the data set on CLOCK + BMAL1, 0.0167 µM in data set [1] (setting [2]) and 0.0178 µM in data set [1] (WT liver extract).
